Measurements: paper PMC4923905
No constants are given. Whether binding was seen depends on the method and setting. Binding can be weak; no strength is given. Sequences can lack the tags named with a protein.

Target: T1, GST-MPK8 (Arabidopsis thaliana) (UniProt Q9LM33)
T1 sequence: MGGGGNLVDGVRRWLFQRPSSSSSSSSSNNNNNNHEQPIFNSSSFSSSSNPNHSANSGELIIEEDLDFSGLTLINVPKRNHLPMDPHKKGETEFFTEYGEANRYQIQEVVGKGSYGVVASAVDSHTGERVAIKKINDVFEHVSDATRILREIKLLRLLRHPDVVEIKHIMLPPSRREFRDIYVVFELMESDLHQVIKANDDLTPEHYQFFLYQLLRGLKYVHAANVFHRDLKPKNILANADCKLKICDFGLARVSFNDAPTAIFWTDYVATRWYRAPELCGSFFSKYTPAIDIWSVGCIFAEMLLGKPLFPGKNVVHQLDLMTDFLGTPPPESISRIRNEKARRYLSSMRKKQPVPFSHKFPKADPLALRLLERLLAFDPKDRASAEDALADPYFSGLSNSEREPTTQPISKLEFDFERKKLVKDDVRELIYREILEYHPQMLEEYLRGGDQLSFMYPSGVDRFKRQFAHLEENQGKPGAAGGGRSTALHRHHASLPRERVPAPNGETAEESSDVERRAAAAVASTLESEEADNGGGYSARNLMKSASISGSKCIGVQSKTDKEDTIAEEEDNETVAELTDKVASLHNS
Assay: pull-down; prey LSF2-His6 and bait GST-MPK8 in binding buffer (50 mM Tris-HCl pH 7.5, 100 mM NaCl, 0.5% Triton X-100, 0.5 mM beta-mercaptoethanol), incubated with amylose resin beads at 25 °C for 1 h; western blot with anti-GST antibody; both purified

## LSF2-His6 (Arabidopsis thaliana) (enzyme)
  binding: binds
